The assay addresses GABAA receptor alpha 1 subunit (mouse (endogenous in hippocampal tissue)) (UniProt P62812). Description: co-IP; protein extracts of mouse hippocampal tissue in IP lysis buffer; incubated overnight at 4 °C with anti-GHRH, anti-GABAAα1 or anti-GABAAβ2 + 3 antibody (rabbit IgG as isotype control); Protein A/G agarose beads 2 h at 4 °C, five washes; Western blot. For orientation: Immunoblotting shows a protein as a band on a membrane.

Sequences of proteins named here, by UniProt entry; tags and fusion partners are left off. A change or cut given only in a name is not applied to a line headed by its entry. Residues count along the entry.
UniProt P62812, residues 28-455: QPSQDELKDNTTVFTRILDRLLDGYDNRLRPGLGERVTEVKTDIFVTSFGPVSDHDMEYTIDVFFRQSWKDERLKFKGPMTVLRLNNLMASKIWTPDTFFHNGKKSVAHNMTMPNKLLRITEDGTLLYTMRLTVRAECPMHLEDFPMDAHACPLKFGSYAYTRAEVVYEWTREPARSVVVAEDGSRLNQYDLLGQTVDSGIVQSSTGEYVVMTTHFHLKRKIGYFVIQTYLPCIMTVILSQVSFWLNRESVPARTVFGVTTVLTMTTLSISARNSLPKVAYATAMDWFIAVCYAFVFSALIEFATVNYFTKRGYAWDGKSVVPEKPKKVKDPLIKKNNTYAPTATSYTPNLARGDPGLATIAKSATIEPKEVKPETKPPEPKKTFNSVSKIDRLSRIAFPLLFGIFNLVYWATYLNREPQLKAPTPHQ
UniProt P16043: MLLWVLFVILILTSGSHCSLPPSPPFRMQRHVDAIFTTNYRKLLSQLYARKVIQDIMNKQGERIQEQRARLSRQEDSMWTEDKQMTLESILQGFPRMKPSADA

No constants are given. Whether binding was seen depends on the method and setting. Binding seen in cells or lysates may run through a third protein. Binding can be weak; no strength is given.

Regarding “Growth hormone releasing hormone (from UniProt P16043)”, the binding entry is recorded as “binds”.
